Reference: the supplement of paper PMC10849652
The other results are listed elsewhere or left out.

Protein sequences, listed by entry. Tags and fused reporters are not part of them. Lines headed by an entry give the natural chain unless they say otherwise; changes in a name come on top.
UniProt O14737: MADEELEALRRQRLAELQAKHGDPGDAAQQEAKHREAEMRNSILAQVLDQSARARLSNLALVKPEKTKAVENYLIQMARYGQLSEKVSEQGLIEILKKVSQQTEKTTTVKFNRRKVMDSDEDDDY
UniProt Q96GD0: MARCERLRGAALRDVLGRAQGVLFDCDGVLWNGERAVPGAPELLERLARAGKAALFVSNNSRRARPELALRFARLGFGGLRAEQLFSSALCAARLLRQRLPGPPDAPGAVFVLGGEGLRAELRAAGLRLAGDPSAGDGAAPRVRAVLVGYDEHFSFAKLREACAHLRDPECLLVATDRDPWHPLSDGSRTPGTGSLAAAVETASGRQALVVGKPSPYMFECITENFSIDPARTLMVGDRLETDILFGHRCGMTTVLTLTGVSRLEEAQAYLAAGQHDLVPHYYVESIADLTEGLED
UniProt Q92968: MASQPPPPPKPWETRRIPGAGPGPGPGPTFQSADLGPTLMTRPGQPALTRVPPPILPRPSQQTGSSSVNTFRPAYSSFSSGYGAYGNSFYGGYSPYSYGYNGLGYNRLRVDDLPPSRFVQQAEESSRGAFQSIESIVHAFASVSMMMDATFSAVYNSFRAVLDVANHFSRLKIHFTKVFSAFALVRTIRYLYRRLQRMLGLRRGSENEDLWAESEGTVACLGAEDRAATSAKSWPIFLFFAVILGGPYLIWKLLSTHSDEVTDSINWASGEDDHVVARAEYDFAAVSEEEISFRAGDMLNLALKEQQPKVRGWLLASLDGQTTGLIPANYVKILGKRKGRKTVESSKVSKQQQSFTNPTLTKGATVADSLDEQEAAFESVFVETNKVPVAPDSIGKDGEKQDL
UniProt Q86TB9: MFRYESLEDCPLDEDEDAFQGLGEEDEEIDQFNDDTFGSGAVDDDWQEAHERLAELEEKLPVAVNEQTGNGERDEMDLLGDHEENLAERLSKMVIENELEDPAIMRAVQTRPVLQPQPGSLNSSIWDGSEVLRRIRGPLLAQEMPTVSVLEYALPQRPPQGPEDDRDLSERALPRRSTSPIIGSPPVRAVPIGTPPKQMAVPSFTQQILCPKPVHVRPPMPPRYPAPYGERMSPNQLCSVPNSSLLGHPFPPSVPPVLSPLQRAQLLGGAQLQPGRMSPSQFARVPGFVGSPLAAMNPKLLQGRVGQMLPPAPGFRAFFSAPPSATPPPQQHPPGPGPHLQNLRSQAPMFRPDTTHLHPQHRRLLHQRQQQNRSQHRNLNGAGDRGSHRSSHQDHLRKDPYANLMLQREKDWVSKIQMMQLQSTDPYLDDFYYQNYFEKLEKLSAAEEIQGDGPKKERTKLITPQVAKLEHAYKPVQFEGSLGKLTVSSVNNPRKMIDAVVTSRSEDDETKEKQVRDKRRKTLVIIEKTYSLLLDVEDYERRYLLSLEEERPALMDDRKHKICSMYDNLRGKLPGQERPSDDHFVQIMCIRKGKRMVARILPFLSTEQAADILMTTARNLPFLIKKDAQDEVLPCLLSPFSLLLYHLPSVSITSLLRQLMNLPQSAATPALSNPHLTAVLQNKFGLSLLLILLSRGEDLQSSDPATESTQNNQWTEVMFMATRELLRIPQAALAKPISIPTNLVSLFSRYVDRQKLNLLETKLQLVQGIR
UniProt Q8WUM4: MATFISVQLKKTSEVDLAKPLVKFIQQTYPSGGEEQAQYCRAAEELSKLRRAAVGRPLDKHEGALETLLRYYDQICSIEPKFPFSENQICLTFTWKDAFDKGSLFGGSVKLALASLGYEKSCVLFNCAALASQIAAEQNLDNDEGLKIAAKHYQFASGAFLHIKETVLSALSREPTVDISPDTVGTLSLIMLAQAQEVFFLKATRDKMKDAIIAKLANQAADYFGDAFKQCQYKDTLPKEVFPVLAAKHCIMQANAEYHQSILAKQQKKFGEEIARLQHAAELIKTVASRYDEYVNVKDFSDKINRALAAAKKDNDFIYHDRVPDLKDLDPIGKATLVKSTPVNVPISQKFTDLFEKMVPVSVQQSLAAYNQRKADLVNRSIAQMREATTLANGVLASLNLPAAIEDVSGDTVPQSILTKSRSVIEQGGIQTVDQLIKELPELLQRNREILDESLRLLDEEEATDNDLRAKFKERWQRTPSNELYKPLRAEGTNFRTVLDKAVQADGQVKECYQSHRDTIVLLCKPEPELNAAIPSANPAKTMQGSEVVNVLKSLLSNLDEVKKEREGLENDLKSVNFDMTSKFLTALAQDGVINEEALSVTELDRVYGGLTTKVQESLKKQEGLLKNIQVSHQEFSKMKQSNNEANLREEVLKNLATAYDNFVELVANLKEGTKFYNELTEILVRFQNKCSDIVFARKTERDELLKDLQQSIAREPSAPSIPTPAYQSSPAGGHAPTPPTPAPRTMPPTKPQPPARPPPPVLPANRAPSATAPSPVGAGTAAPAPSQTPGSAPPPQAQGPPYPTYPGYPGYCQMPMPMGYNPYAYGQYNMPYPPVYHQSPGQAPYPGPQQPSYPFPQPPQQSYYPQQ
UniProt Q14554: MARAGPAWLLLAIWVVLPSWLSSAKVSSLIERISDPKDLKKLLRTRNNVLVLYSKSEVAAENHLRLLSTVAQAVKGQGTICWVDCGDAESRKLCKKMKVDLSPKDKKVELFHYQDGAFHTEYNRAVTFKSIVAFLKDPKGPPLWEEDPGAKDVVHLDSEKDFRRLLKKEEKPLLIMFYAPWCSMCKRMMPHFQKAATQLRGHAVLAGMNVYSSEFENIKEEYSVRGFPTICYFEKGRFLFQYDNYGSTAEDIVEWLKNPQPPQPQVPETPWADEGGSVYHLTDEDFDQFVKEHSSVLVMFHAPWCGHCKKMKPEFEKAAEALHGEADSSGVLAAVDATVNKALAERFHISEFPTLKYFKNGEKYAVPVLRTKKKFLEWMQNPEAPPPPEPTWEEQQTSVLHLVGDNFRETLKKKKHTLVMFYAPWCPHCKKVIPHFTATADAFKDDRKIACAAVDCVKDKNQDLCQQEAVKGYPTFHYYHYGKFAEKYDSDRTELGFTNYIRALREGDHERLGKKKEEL
UniProt Q86SE9: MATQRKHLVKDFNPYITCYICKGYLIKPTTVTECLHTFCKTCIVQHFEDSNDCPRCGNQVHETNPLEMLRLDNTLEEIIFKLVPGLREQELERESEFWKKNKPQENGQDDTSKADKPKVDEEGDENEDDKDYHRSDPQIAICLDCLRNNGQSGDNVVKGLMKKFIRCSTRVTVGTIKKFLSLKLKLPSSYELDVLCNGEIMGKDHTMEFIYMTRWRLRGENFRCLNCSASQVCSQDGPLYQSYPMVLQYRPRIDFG
UniProt Q7L3T8: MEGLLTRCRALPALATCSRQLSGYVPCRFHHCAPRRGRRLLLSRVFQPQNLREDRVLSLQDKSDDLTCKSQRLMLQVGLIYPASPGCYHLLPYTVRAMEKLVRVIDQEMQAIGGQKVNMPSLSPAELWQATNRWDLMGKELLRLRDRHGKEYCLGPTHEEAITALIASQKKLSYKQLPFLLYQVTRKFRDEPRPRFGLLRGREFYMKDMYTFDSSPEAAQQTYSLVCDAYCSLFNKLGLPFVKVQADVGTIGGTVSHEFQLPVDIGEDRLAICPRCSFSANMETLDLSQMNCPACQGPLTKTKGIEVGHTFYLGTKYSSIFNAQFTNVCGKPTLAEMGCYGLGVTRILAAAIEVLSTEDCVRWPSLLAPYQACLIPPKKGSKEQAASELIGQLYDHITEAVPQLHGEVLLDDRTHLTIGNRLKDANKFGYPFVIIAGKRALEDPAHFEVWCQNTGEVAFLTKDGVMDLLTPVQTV
UniProt P27815: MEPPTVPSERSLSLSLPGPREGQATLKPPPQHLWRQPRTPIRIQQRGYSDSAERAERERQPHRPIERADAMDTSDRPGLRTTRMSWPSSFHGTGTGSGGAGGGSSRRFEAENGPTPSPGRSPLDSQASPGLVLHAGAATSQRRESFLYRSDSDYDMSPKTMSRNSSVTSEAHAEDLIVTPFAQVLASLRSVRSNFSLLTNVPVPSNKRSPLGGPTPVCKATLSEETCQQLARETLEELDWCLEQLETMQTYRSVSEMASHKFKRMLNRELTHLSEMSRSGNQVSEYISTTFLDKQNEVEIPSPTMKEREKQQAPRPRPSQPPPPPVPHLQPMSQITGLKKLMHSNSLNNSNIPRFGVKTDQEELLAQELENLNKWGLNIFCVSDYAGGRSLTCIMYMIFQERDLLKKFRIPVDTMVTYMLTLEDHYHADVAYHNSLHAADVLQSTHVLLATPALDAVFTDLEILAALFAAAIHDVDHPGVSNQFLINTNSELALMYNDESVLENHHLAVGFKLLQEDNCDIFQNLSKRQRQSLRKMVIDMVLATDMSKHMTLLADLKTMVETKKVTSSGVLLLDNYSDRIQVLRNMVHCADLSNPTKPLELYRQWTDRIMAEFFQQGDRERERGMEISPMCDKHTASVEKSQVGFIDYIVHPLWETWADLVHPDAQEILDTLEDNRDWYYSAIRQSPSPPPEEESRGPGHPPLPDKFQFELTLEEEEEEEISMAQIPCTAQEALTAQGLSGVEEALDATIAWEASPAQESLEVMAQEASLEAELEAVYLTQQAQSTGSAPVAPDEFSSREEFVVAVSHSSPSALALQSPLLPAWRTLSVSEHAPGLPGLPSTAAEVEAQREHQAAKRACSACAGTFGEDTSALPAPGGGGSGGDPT
UniProt P30101, whole entry, looked up: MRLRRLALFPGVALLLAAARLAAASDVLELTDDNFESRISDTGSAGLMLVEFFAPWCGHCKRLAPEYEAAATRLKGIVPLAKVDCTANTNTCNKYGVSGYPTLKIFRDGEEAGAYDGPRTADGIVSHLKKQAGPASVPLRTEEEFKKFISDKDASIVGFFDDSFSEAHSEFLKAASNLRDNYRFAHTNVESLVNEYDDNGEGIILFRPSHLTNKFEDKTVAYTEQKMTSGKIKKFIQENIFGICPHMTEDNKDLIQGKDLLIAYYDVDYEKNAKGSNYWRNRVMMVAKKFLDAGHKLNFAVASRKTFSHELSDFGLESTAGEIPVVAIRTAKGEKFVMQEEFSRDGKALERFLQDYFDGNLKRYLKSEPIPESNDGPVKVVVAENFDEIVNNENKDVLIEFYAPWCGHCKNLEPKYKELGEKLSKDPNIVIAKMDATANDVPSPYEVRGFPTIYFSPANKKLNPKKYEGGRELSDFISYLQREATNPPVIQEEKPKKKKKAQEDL
UniProt Q8N165: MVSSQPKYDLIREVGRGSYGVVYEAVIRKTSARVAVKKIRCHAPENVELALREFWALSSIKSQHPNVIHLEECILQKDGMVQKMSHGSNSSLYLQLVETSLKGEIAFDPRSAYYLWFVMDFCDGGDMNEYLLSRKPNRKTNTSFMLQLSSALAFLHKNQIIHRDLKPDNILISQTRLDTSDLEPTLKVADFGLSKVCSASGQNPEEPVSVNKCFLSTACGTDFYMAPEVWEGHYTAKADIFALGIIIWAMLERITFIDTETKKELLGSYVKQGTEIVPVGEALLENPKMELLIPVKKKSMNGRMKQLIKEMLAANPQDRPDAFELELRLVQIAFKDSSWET
UniProt Q9H813: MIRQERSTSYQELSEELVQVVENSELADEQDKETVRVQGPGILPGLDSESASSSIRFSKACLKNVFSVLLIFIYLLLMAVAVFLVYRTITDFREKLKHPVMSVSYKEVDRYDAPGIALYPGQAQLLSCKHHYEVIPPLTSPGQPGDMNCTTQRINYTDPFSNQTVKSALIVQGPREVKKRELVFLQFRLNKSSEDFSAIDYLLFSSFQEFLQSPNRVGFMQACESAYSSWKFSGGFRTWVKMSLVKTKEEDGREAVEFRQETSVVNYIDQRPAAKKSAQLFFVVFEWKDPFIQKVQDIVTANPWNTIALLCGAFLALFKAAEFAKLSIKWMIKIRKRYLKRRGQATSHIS
UniProt Q86YH6: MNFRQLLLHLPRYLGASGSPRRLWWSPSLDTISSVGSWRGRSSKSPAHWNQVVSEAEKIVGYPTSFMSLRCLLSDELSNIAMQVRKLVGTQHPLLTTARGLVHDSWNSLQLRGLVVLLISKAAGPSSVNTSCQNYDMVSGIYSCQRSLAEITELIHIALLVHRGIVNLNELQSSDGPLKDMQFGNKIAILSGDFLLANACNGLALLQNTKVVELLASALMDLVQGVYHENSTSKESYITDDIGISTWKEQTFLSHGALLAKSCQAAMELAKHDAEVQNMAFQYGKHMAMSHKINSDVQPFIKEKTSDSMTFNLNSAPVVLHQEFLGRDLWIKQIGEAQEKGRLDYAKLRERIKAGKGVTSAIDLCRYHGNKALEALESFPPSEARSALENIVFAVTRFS
UniProt P08559, whole entry, looked up: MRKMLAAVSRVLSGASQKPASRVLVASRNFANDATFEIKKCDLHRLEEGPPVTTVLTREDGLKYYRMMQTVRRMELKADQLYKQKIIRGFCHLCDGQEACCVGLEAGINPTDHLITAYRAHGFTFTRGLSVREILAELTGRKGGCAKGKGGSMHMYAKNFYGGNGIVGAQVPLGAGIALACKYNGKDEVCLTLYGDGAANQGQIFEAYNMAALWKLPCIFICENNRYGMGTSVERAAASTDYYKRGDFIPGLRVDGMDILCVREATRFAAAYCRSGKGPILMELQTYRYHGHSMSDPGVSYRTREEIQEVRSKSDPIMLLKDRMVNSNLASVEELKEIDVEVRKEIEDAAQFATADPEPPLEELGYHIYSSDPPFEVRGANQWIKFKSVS

Experiments:
Experiment in all cases: log2 fold change, soluble protein after heating vs DMSO (PISA); higher = thermal stabilisation; K562 cells, 10 uM, 30 min; active = over 0.2 and 3.5 SD of the protein, either way, in both replicates (recomputed)
[1] = compound: C1=CC=C(C=C1)[C@H](COC2=CC3=C(C=C2)NC(=O)N3)NC(=O)C4=CC=CN(C4=O)CC5=CC(=C(C=C5)F)F
Outline: (§1)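 Soluble protein was quantified by TMTpro 16plex LC-MS/MS after channel sums were equalised. It was obtained as the supernatant after 21,000xg for 90 min from pooled aliquots of K562 cells (2×10^6 cells/mL, 10 μM compound, 30 min) heated for 3 min across 48°C-58°C and extracted in PBS with 0.5% NP-40 at 4°C. Thermal stability values are relative to control samples and come from duplicates. They are given as log2 fold changes.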

[2] = compound: CC1=C(SC2=C1C(=N[C@H](C3=NN=C(N32)C)CC(=O)N)C4=CC=C(C=C4)Cl)C
Outline: as §1

[3] = compound: CC1=C2C(=CC=C1)N=C(N(C2=O)C3=CC=CC=C3C)CN4C=NC5=C(N=CN=C54)N
Outline: as §1

[4] = compound: Cc1sc2c(c1C)C(c1ccc(Cl)cc1)=N[C@@H](CC(=O)OC(C)(C)C)c1nnc(C)n1-2
Outline: as §1

[5] = compound: c1ccc([C@@H]2C[C@H]2NC2CCNCC2)cc1
Outline: as §1

Measured: log2 fold change

PDCD5 (UniProt O14737)
inactive: [1] -0.002 | [2] 0.015 | [3] 0.023 | [4] -0.024 | [5] 0.001

PDCD11 (UniProt Q14690)
inactive: [1] -0.255 | [2] -0.001 | [3] 0.209 | [4] -0.045 | [5] -0.02

PBDC1 (UniProt Q9BVG4)
inactive: [1] -0.019 | [2] 0.058 | [3] 0.082 | [4] -0.01 | [5] -0.023

PCMTD1 (UniProt Q96MG8)
inactive: [1] 0.123

PDE6C (UniProt P51160)
inactive: [1] -0.107 | [2] 0.052 | [3] 0.142 | [4] 0.015 | [5] 0.008

PDXP (UniProt Q96GD0)
inactive: [1] 0.01 | [2] 0.031 | [3] -0.001 | [4] -0.023 | [5] 0.024

PEX13 (UniProt Q92968)
inactive: [1] -0.064 | [2] 0.05 | [3] 0.078 | [4] -0.107 | [5] 0.001

PATL1 (UniProt Q86TB9)
inactive: [1] -0.019 | [2] -0.004 | [3] 0.095 | [4] 0 | [5] -0.021

PDXDC1 (UniProt Q6P996)
inactive: [1] -0.404 | [2] 0.068 | [3] 0.04 | [4] 0.192 | [5] -0.035

PDP1 isoform 2 (UniProt Q9P0J1)
inactive: [1] -0.252

PDPR (UniProt Q8NCN5)
inactive: [1] -0.023 | [2] 0.057 | [3] 0.034 | [4] -0.019 | [5] -0.01

PARP1 (UniProt P09874)
inactive: [1] -0.098 | [2] 0.027 | [3] 0.182 | [4] -0.069 | [5] -0.101

PDCD6IP (UniProt Q8WUM4)
inactive: [1] -0.131 | [2] 0.05 | [3] 0.119 | [4] -0.029 | [5] -0.04

PDIA5 (UniProt Q14554)
inactive: [1] 0.044 | [2] -0.051 | [3] 0.01 | [4] -0.009 | [5] -0.05

PBK (UniProt Q96KB5)
inactive: [1] -0.06 | [2] 0.016 | [3] 0.067 | [4] 0.023 | [5] -0.016

PARD6B (UniProt Q9BYG5)
inactive: [1] -0.023 | [2] 0.035 | [3] 0.079 | [4] 0.08 | [5] 0

PCYT2 isoform 3 (UniProt Q99447)
inactive: [1] -0.023 | [2] 0.031 | [3] -0.005 | [4] -0.023 | [5] 0.003

PDF (UniProt Q9HBH1)
inactive: [1] 0.053 | [2] -0.009 | [3] 0.082 | [4] -0.008 | [5] 0.074

PASK (UniProt Q96RG2)
inactive: [1] -0.102 | [2] 0.047 | [3] 0.031 | [4] 0.025 | [5] -0.001

PEX1 (UniProt O43933)
inactive: [1] -0.037 | [2] 0.041 | [3] 0.008 | [4] -0.041 | [5] 0.035

PDZD8 (UniProt Q8NEN9)
inactive: [1] -0.01 | [2] 0.04 | [3] 0.043 | [4] -0.037 | [5] -0.008

PBLD (UniProt P30039)
inactive: [1] -0.082 | [2] 0.141 | [3] 0.087 | [4] -0.036 | [5] -0.021

PCBD1 (UniProt P61457)
inactive: [1] 0.024 | [2] 0.069 | [3] 0.098 | [4] -0.034 | [5] -0.026

PCGF5 (UniProt Q86SE9)
inactive: [1] -0.033

PACSIN2 (UniProt Q9UNF0)
inactive: [1] -0.134 | [2] 0.079 | [3] 0.103 | [4] 0.009 | [5] -0.091

PARS2 (UniProt Q7L3T8)
inactive: [1] 0.033 | [2] -0.008 | [3] 0.012 | [4] 0.04 | [5] 0.007

PDE4A (UniProt P27815)
inactive: [1] -0.11 | [2] 0.128 | [3] 0.102 | [4] -0.112 | [5] 0.201

PDCD10 (UniProt Q9BUL8)
inactive: [1] -0.018 | [2] 0.026 | [3] 0.038 | [4] -0.01 | [5] -0.028

PCNP (UniProt Q8WW12)
inactive: [1] 0.024 | [2] 0.011 | [3] -0.021 | [4] 0.025 | [5] 0.032

PDRG1 (UniProt Q9NUG6)
inactive: [1] -0.032 | [2] 0.059 | [3] 0.006 | [4] 0.022 | [5] 0

PDIA3 (UniProt P30101)
inactive: [1] -0.008 | [2] -0.064 | [3] -0.086 | [4] -0.015 | [5] -0.028

PDIK1L (UniProt Q8N165)
inactive: [1] -0.255 | [2] 0.001 | [3] 0.044 | [4] 0.062 | [5] -0.005

PACC1 (UniProt Q9H813)
inactive: [1] 0 | [2] 0.037 | [3] 0.092 | [4] 0.009 | [5] -0.058

PANK4 (UniProt Q9NVE7)
inactive: [1] -0.051 | [2] 0.09 | [3] 0.04 | [4] 0.007 | [5] -0.018

PER3 isoform 2 (UniProt P56645)
inactive: [1] 0.015 | [2] -0.008 | [3] 0.013 | [4] -0.003 | [5] 0.087

PCK2 (UniProt Q16822)
inactive: [1] 0.051 | [2] 0.038 | [3] 0.057 | [4] 0.008 | [5] -0.038

PAGR1 (UniProt Q9BTK6)
inactive: [1] -0.03 | [2] -0.018 | [3] -0.076 | [4] 0.011 | [5] 0.075

PDSS2 (UniProt Q86YH6)
inactive: [1] -0.066 | [2] 0.052 | [3] 0.085 | [4] 0.005 | [5] 0.094

PEF1 (UniProt Q9UBV8)
inactive: [1] 0.01 | [2] 0.185 | [3] 0.047 | [4] -0.178 | [5] -0.014

PCCB isoform 2 (UniProt P05166)
inactive: [1] -0.06 | [2] 0.049 | [3] -0.006 | [4] -0.026 | [5] 0.013

PDE2A (UniProt O00408)
inactive: [1] 0.079 | [2] 0.08 | [3] 0.16 | [4] -0.024 | [5] 0.065

PCSK9 (UniProt Q8NBP7)
inactive: [1] 0.019 | [2] -0.062 | [3] -0.089 | [4] 0.111 | [5] -0.073

PAXIP1 (UniProt Q6ZW49)
inactive: [1] -0.139 | [2] -0.146 | [3] 0.096 | [4] 0.133 | [5] 0.112

PDE12 (UniProt Q6L8Q7)
inactive: [1] -0.003 | [2] 0.059 | [3] 0.12 | [4] -0.05 | [5] -0.094

PACS1 (UniProt Q6VY07)
inactive: [1] -0.02 | [2] 0.042 | [3] 0.033 | [4] 0.002 | [5] -0.014

PDLIM7 (UniProt Q9NR12)
inactive: [1] -0.04 | [2] 0.044 | [3] 0.092 | [4] -0.023 | [5] -0.011

PCTP (UniProt Q9UKL6)
inactive: [1] -0.033 | [2] -0.101 | [3] 0.028 | [4] -0.023 | [5] 0.018

PDXK (UniProt O00764)
inactive: [1] 0.007 | [2] -0.026 | [3] -0.013 | [4] 0.023 | [5] 0.027

PDK1 (UniProt Q15118)
inactive: [1] -0.054 | [2] 0.015 | [3] 0.091 | [4] -0.018 | [5] -0.08

PEX11B (UniProt O96011)
inactive: [1] -0.027 | [2] 0.056 | [3] -0.01 | [4] -0.008 | [5] -0.005

PARP16 isoform 3 (UniProt Q8N5Y8)
inactive: [1] -0.019 | [2] -0.019 | [3] 0.012 | [4] -0.041 | [5] 0.001

PDHB (UniProt P11177)
inactive: [1] 0.034 | [2] -0.026 | [3] -0.002 | [4] -0.033 | [5] -0.045

Quoted at random: four entries already listed, in no set order.
PDP1 isoform 2 (UniProt Q9P0J1)
inactive: [1] -0.252

PASK (UniProt Q96RG2)
inactive: [1] -0.102 | [2] 0.047 | [3] 0.031 | [4] 0.025 | [5] -0.001

PCSK9 (UniProt Q8NBP7)
inactive: [1] 0.019 | [2] -0.062 | [3] -0.089 | [4] 0.111 | [5] -0.073

PAGR1 (UniProt Q9BTK6)
inactive: [1] -0.03 | [2] -0.018 | [3] -0.076 | [4] 0.011 | [5] 0.075

Further entries follow:

PDSS1 (UniProt Q5T2R2)
inactive: [1] -0.033 | [2] 0.031 | [3] 0.055 | [4] 0.024 | [5] -0.04

PDHA1 isoform 4 (UniProt P08559)
inactive: [1] 0.035 | [2] -0.123 | [3] -0.029 | [4] 0 | [5] -0.047

PCLAF (UniProt Q15004)
inactive: [1] 0.055 | [2] -0.022 | [3] -0.045 | [4] 0.02 | [5] 0.07
